Measurements published in article PMC7500955.

B1: WDR90-N(1-225) (domain or fragment, UniProt Q96KV7-1 1-225)
chain: MARAWQHPFLNVFRHFRVDEWKRSAKQGDVAVVTDKTLKGAVYRIRGSVSAANYIQLPKSSTQSLGLTGRYLYVLFRPLPSKHFVIHLDVSSKDNQVIRVSFSNLFKEFKSTATWLQFPLVLEARTPQRDLVGLAPSGARWTCLQLDLQDVLLVYLNRCYGHLKSIRLCASLLVRNLYTSDLCFEPAISGAQWAKLPVTPMPREMAFPVPKGESWHDRYIHVRFP
B2: drPOC16(1-243) (domain or fragment, UniProt F1RA29 1-243)
chain: MSSKALWQQPYVNIFKHMKIEEWKKVSKEGDVSLYMDKNLKCSVFSIRGSIQASNYILLPKTSSQTLGLTGRYLYLLFKPSPNKHFIVHLDIAAEEGQVIRVSFSNLFKEFKSTATWLQFPFLCGAAHGSVDENTSTTAKQGLVGPAPWSTRWTCLTMDLRYVLSVYLNRTHSHLKSIKLCANMSVKNIITSDLLFDPGLSFSEFRQSGVMLPDGSAPMPREMCFPVPKGQSWHHLYDYIRFP
B3: xtPOC16(1-245) (domain or fragment, UniProt A0JP70 1-245)
chain: MAGVWQHPFVNVFKHLRLEEWKKSSKEGDVTSVMDKTLKCTVYRIRGSIPAGNYIQLPKTSSQSLGLTGRYLYILFKPLPGKHFVVHIDVSAEDGQTVRISFSNLFKEFKSTATWLQFPFVCGAIKGSVYDSTAQGARQGMVGPAPSGSRWTCLLLDVQYILSLYLSRRYSHLRSAKLCSNLLVRNLMTSDLLFNPEVNFMEARHAKTLPDGISPMPREMSFPVPKGEKWHDLYDFIMFPSDSSK

Legend:
[1] = target: pure bovine brain tubulin (Bovine taurus); assay: co-sedimentation; tubulin-binding assay: free tubulin at 10 µM with around 15 µM of each protein construct in MES buffer, 15 min on ice; 13,000 x g, 4°C, 20 min; supernatant and pellet on Coomassie-stained SDS-PAGE; both purified
[2] = target: pure bovine brain tubulin (Bovine taurus); assay: co-sedimentation; microtubule-pelleting assay: taxol-stabilized microtubules assembled in BRB80 (80 mM PIPES-KOH pH 6.8, 1 mM MgCl2, 1 mM EGTA) from bovine brain tubulin at 1 mg/mL; 50 µL MTs with 20 µL protein at 1 mg/mL, 2 hr, room temperature; centrifuged on a taxol-glycerol cushion (8000 rpm, 30°C, 20 min); supernatant and pellet on Coomassie-stained SDS-PAGE; both purified

Binder | binding [1] | binding [2]
B1 | binds | binds
B2 | binds | binds
B3 | binds | binds

Results are given in words; binding and its absence hold for the method and conditions named. Binding can be weak; no strength is given.
